PubChem BioAssay AID1224830, NIAID, 2016

- Purpose: 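Regulators of TLR4 signalling towards TNF-alpha in macrophage-like cells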 (primary screen)
- Cells: human THP-1 monocytic leukaemia cells, TNF dual-luciferase reporter clone, PMA-differentiated to macrophage-like cells
- Reagent: siRNA pool against human genes, 50 nM
- Time to read-out: LPS for 4 h, given about 3 days after siRNA transfection
- Challenge: bacterial LPS (TLR4 ligand), 10 ng/ml
- Measured: 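Ratio of firefly to renilla light, scaled to the plate median and expressed as a robust z-score per replicate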
- Reading the numbers: TNF reporter robust z-score: higher = stronger TNF reporter response to LPS
- Call rule: 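Each well counts as active if its z-score is over 2.8 or under -1.5; controls are left without a call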
Here is a random part of about 18,000 reagents. Over the whole deposit, about 2,900 (16%) are marked active. 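Calls are made per well; low scores hint the gene aids the LPS response, high scores that it dampens it.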 Unmarked entries are inactive. Repeated entries: four replicate wells of each siRNA pool.

no.	gene	PubChem SID	TNF reporter robust z-score
1	PKP3 (plakophilin 3)	SID315454675	-0.85
2	PKP3 (plakophilin 3)	SID315454675	-0.83
3	PKP3 (plakophilin 3)	SID315454675	2.48
4	TRPV6	SID315457652	-0.17
5	TRPV6	SID315457652	0.07
6	TRPV6	SID315457652	-0.48
7	TRPV6	SID315457652	0.22
8	CEP57 (centrosomal protein 57)	SID315453495	-1.21
9	CEP57 (centrosomal protein 57)	SID315453495	-0.59
10	CEP57 (centrosomal protein 57)	SID315453495	-0.72
11	CEP57 (centrosomal protein 57)	SID315453495	-0.33
12	SLC16A6	SID315453057	-0.81
13	SLC16A6	SID315453057	0
14	SLC16A6	SID315453057	-0.2
15	SLC16A6	SID315453057	-0.01
16	RPS6KL1 (ribosomal protein S6 kinase like 1)	SID315460058	1.52
17	RPS6KL1 (ribosomal protein S6 kinase like 1)	SID315460058	0.75
18	RPS6KL1 (ribosomal protein S6 kinase like 1)	SID315460058	1.39
19	RPS6KL1 (ribosomal protein S6 kinase like 1)	SID315460058	1.45
20	UBL4A (ubiquitin like 4A)	SID315452448	0.81
21	UBL4A (ubiquitin like 4A)	SID315452448	0.52
22	UBL4A (ubiquitin like 4A)	SID315452448	-0.82
23	UBL4A (ubiquitin like 4A)	SID315452448	1.47
24	LSMEM1 (leucine rich single-pass membrane protein 1)	SID315463890	-0.45
25	LSMEM1 (leucine rich single-pass membrane protein 1)	SID315463890	-0.27
26	LSMEM1 (leucine rich single-pass membrane protein 1)	SID315463890	-0.58
27	LSMEM1 (leucine rich single-pass membrane protein 1)	SID315463890	0.15
28	EPPIN (epididymal peptidase inhibitor)	SID315458273	0.41
29	EPPIN (epididymal peptidase inhibitor)	SID315458273	1.23
30	EPPIN (epididymal peptidase inhibitor)	SID315458273	-0.24
31	EPPIN (epididymal peptidase inhibitor)	SID315458273	2.89 (active)
32	SH3PXD2B (SH3 and PX domains 2B)	SID315463860	-0.56
33	SH3PXD2B (SH3 and PX domains 2B)	SID315463860	0.44
34	SH3PXD2B (SH3 and PX domains 2B)	SID315463860	-0.38
35	SH3PXD2B (SH3 and PX domains 2B)	SID315463860	-0.19
36	SPATA18 (spermatogenesis associated 18)	SID315461926	0.63
37	SPATA18 (spermatogenesis associated 18)	SID315461926	-0.75
38	SPATA18 (spermatogenesis associated 18)	SID315461926	-1
39	SPATA18 (spermatogenesis associated 18)	SID315461926	-0.6
40	DNAL1 (dynein axonemal light chain 1)	SID315460017	0.31
41	DNAL1 (dynein axonemal light chain 1)	SID315460017	0.33
42	DNAL1 (dynein axonemal light chain 1)	SID315460017	0.29
43	DNAL1 (dynein axonemal light chain 1)	SID315460017	0.44
44	FOXH1 (forkhead box H1)	SID315452933	-0.95
45	FOXH1 (forkhead box H1)	SID315452933	-0.79
46	FOXH1 (forkhead box H1)	SID315452933	-0.86
47	FOXH1 (forkhead box H1)	SID315452933	-0.59
48	TRIM47 (tripartite motif containing 47)	SID315460884	-0.93
49	TRIM47 (tripartite motif containing 47)	SID315460884	-1.5
50	TRIM47 (tripartite motif containing 47)	SID315460884	-0.06
51	TRIM47 (tripartite motif containing 47)	SID315460884	0.29
52	ASB10 (ankyrin repeat and SOCS box containing 10)	SID315462012	2.39
53	ASB10 (ankyrin repeat and SOCS box containing 10)	SID315462012	-0.92
54	ASB10 (ankyrin repeat and SOCS box containing 10)	SID315462012	-0.76
55	ASB10 (ankyrin repeat and SOCS box containing 10)	SID315462012	-0.97
56	FBXO27 (F-box protein 27)	SID315461715	0.5
57	FBXO27 (F-box protein 27)	SID315461715	1.7
58	FBXO27 (F-box protein 27)	SID315461715	-1.01
59	FBXO27 (F-box protein 27)	SID315461715	-0.51
60	THG1L (tRNA-histidine guanylyltransferase 1 like)	SID315457314	-0.1
61	THG1L (tRNA-histidine guanylyltransferase 1 like)	SID315457314	1.68
62	THG1L (tRNA-histidine guanylyltransferase 1 like)	SID315457314	1.07
63	CARS1 (cysteinyl-tRNA synthetase 1)	SID315447700	1.36
64	CARS1 (cysteinyl-tRNA synthetase 1)	SID315447700	2.08
65	CARS1 (cysteinyl-tRNA synthetase 1)	SID315447700	-0.59
66	CARS1 (cysteinyl-tRNA synthetase 1)	SID315447700	1.78
67	OSBPL11 (oxysterol binding protein like 11)	SID315461267	1.14
68	OSBPL11 (oxysterol binding protein like 11)	SID315461267	1.1
69	OSBPL11 (oxysterol binding protein like 11)	SID315461267	0.7
70	OSBPL11 (oxysterol binding protein like 11)	SID315461267	1.34
71	CD244 (CD244 molecule)	SID315456876	0.29
72	CD244 (CD244 molecule)	SID315456876	0.17
73	CD244 (CD244 molecule)	SID315456876	-0.36
74	CD244 (CD244 molecule)	SID315456876	-0.47
75	MRPL23 (mitochondrial ribosomal protein L23)	SID315451189	-0.7
76	MRPL23 (mitochondrial ribosomal protein L23)	SID315451189	-0.53
77	MRPL23 (mitochondrial ribosomal protein L23)	SID315451189	-0.82
78	MRPL23 (mitochondrial ribosomal protein L23)	SID315451189	-0.8

In a second layout: entries from further up.
| gene | PubChem SID | TNF reporter robust z-score |
| --- | --- | --- |
| CD244 (CD244 molecule) | SID315456876 | 0.29 |
| CD244 (CD244 molecule) | SID315456876 | 0.17 |
| CD244 (CD244 molecule) | SID315456876 | -0.36 |
| CD244 (CD244 molecule) | SID315456876 | -0.47 |
| MRPL23 (mitochondrial ribosomal protein L23) | SID315451189 | -0.7 |
| MRPL23 (mitochondrial ribosomal protein L23) | SID315451189 | -0.53 |
